From the supplement of paper PMC10849652
Some of the results follow.

By UniProt entry, the sequences of proteins in these tests, tags left out. Where a name states a change or a piece, a line headed by the entry shows the natural chain unless it says otherwise.
UniProt Q9UNF1: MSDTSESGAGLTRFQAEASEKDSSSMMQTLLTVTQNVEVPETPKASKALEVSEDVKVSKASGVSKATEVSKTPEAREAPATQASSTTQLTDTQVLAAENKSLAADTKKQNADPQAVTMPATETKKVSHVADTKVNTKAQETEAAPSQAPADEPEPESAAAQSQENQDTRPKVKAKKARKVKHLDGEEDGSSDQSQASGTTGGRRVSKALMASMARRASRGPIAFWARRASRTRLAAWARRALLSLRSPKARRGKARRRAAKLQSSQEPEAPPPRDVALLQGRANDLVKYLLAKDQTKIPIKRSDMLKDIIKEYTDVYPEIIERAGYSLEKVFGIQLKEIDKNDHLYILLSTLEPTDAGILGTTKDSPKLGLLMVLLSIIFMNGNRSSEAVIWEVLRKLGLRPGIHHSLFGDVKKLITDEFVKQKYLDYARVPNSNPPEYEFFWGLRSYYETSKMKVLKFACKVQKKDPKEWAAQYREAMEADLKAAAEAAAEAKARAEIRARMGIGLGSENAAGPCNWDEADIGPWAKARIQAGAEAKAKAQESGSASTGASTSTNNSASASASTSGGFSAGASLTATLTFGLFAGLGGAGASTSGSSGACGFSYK
UniProt O43318: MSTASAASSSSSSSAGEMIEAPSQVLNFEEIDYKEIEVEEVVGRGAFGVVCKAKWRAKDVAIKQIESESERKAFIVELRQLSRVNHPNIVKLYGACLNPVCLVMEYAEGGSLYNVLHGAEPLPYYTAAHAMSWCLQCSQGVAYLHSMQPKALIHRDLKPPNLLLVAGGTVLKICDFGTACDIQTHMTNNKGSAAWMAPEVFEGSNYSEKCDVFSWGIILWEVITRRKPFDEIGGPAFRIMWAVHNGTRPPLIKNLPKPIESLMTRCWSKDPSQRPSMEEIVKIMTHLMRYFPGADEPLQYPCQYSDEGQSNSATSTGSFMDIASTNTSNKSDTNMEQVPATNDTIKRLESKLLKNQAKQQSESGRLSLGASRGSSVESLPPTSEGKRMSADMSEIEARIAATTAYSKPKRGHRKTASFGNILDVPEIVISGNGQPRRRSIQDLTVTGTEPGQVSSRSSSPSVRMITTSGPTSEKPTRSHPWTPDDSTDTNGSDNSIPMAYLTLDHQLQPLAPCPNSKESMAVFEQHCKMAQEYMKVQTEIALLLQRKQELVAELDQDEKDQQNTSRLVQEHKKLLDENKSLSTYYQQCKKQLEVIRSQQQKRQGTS
UniProt Q9UPT6: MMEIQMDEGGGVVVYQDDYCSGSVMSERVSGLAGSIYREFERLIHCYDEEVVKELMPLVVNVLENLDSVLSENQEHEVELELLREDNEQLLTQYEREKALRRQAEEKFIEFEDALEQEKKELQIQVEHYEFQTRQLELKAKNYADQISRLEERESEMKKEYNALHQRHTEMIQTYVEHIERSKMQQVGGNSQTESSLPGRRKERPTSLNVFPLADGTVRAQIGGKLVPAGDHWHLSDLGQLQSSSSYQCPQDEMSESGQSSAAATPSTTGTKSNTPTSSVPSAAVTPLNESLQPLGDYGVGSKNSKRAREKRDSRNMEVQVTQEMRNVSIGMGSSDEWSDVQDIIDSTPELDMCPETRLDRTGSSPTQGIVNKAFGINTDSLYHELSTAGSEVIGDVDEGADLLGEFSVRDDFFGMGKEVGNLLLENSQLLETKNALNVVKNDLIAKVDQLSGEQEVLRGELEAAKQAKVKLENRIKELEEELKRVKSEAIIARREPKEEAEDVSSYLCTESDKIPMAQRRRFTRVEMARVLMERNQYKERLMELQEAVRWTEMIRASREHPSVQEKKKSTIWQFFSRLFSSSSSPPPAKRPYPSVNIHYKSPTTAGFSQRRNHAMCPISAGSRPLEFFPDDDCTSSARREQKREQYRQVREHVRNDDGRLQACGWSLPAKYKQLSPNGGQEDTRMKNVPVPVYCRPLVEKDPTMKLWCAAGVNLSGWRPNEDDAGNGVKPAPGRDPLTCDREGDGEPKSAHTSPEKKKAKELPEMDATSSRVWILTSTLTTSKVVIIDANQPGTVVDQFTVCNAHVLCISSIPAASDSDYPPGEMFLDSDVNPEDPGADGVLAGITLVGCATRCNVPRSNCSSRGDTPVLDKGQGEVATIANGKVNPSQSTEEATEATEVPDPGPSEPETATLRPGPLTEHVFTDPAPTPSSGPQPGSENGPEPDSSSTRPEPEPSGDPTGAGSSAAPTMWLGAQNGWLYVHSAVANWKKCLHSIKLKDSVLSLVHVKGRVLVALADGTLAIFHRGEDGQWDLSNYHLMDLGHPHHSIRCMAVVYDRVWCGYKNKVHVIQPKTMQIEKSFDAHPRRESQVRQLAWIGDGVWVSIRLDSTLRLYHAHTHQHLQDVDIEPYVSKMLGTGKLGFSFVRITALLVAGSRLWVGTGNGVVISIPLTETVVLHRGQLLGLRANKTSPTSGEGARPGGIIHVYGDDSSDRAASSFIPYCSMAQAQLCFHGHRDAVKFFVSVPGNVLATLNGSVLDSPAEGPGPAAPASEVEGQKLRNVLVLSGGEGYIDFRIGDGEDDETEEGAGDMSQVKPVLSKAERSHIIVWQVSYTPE
UniProt Q8IVH8: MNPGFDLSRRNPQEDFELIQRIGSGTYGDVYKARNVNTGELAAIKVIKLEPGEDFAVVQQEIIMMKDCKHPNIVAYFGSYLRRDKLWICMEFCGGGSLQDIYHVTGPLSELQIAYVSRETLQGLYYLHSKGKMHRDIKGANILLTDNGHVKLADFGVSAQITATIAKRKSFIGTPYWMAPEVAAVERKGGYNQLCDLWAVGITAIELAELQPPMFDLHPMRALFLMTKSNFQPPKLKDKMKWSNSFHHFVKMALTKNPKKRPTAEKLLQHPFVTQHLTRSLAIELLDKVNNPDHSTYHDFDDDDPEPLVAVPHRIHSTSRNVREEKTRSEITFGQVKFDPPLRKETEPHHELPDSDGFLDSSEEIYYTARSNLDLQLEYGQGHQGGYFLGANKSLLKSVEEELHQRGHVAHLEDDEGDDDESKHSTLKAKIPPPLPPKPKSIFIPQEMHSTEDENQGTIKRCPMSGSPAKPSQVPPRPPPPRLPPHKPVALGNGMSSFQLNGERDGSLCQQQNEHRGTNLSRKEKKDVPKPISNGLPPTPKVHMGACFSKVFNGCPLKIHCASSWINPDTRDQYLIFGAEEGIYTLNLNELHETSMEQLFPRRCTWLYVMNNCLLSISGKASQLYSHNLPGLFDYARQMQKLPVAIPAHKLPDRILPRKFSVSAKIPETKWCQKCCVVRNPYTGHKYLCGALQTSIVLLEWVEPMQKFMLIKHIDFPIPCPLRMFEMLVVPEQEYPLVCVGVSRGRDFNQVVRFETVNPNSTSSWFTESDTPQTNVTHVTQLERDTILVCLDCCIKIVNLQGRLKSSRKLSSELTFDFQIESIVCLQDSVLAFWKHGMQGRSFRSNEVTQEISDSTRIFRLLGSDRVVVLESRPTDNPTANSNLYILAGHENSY
UniProt O15479: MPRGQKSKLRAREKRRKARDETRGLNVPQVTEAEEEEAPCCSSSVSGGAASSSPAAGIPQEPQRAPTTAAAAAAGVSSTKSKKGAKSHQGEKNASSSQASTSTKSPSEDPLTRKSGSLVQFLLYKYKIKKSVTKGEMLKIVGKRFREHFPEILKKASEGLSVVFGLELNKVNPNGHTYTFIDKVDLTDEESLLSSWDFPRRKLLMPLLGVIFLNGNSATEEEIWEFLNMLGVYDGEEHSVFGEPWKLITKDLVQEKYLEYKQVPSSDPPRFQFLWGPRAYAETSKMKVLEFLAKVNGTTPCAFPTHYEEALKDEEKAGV
UniProt P27816: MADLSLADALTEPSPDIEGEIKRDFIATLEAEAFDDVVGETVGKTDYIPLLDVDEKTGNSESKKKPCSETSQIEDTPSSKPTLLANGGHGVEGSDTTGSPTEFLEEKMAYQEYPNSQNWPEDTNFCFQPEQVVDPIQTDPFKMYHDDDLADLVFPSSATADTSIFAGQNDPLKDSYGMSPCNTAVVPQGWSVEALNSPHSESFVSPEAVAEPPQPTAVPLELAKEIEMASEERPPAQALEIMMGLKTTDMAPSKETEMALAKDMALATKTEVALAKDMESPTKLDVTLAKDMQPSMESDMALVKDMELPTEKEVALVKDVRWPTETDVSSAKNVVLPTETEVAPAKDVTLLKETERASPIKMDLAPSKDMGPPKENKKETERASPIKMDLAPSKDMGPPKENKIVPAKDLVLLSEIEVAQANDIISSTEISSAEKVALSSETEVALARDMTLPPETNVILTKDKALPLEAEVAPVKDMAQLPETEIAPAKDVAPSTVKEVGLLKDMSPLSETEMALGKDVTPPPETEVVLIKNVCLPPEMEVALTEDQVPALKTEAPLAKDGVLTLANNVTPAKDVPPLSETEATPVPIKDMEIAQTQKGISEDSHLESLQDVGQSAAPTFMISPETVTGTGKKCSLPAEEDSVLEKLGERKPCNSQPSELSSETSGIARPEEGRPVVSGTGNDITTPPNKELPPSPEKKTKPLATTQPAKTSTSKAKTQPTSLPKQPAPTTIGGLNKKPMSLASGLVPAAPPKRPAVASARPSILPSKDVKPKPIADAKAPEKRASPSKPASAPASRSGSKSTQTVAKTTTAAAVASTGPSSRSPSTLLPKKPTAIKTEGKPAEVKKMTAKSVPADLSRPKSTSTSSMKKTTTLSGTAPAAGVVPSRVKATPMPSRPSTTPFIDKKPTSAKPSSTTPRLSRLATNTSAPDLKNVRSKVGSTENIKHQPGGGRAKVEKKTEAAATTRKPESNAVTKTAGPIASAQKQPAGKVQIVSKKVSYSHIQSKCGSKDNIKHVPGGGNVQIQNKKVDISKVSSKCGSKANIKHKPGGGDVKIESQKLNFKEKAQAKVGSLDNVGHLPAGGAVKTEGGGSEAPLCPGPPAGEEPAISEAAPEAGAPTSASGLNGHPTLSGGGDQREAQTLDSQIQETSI
UniProt Q9NU23: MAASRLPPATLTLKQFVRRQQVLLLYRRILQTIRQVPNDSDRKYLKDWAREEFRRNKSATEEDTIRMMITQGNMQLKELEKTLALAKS
UniProt O75608: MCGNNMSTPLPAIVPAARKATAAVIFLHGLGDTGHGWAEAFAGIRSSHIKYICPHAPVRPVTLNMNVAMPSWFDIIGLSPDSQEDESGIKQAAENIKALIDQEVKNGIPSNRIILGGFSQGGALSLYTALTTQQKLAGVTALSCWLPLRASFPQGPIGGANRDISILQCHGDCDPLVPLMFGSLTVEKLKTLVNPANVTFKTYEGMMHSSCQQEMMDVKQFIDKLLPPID
UniProt O43325: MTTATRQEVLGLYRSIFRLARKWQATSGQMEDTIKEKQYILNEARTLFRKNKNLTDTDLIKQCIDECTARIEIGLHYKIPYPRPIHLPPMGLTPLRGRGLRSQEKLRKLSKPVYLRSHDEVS
UniProt P12980: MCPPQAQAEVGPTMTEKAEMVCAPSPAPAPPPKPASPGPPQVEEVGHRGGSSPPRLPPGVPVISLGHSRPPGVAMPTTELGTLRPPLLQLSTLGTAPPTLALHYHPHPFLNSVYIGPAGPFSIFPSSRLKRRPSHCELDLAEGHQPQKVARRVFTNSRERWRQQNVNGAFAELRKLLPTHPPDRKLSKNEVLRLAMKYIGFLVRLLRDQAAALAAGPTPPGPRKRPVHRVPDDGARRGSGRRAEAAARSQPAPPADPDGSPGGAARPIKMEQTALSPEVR
UniProt Q9BPZ7, whole entry, looked up: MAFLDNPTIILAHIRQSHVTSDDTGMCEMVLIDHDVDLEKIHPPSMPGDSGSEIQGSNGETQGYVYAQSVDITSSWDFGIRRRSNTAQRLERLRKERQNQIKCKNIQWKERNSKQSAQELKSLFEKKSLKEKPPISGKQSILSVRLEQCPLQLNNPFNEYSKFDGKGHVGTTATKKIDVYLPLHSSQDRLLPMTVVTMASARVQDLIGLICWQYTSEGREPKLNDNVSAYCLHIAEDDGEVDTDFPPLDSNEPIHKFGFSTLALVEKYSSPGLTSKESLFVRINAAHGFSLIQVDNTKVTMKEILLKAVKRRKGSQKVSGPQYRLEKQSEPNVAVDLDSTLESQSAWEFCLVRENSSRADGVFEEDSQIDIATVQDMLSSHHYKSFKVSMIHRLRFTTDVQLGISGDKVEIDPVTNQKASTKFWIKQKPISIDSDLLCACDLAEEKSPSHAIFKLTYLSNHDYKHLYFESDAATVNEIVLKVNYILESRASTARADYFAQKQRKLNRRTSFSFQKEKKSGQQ
UniProt P43365, whole entry, looked up: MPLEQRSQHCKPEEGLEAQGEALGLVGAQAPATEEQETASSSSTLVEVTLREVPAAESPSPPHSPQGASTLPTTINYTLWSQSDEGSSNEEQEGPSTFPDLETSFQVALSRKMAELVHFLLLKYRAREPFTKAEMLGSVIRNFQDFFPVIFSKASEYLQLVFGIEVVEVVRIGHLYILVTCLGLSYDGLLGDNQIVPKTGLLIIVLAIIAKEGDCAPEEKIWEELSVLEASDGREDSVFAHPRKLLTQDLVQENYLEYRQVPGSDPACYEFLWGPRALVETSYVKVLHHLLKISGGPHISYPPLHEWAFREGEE
UniProt Q9NQG1: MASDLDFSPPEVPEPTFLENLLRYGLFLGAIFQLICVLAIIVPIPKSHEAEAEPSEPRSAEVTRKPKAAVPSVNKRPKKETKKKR

How the values were obtained:
Assay in all cases: log2 fold change, soluble protein after heating vs DMSO (PISA); higher = thermal stabilisation; K562 lysate, 10 uM; active = over 0.2 and 3.5 SD of the protein, either way, in both replicates (recomputed)
[1] = compound: C1=CC=C(C=C1)[C@H](COC2=CC3=C(C=C2)NC(=O)N3)NC(=O)C4=CC=CN(C4=O)CC5=CC(=C(C=C5)F)F
Method in brief: (§1)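 K562 pellets were dounce-homogenised in PBS pH 7.4 with 1 mM MgCl2, and the crude extract at 1 mg/mL protein was treated with 10 μM compound for 30 min. Aliquots were heated for 3 min across 48°C-58°C, pooled, and brought to 0.5% NP-40 at 4°C; soluble protein was the supernatant after 21,000xg for 90 min. Soluble protein was quantified by TMTpro 16plex LC-MS/MS with channel sums equalised, and reported as log2 fold change in thermal stability against DMSO controls, with values from duplicates.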

[2] = compound: CC1=C(SC2=C1C(=N[C@H](C3=NN=C(N32)C)CC(=O)N)C4=CC=C(C=C4)Cl)C
Method in brief: as §1

[3] = compound: CC1=C2C(=CC=C1)N=C(N(C2=O)C3=CC=CC=C3C)CN4C=NC5=C(N=CN=C54)N
Method in brief: as §1

[4] = compound: Cc1sc2c(c1C)C(c1ccc(Cl)cc1)=N[C@@H](CC(=O)OC(C)(C)C)c1nnc(C)n1-2
Method in brief: as §1

[5] = compound: c1ccc([C@@H]2C[C@H]2NC2CCNCC2)cc1
Method in brief: as §1

Measured: log2 fold change

MAGED2 (UniProt Q9UNF1)
inactive: [1] 0 | [2] 0.08 | [3] 0.076 | [4] 0 | [5] 0.048

MAP3K7 (UniProt O43318)
inactive: [1] 0.015 | [2] 0.003 | [3] 0.006 | [4] -0.002 | [5] -0.012

MAPK14 isoform 2 (UniProt Q16539)
inactive: [1] 0.008 | [2] -0.053 | [3] 0.014 | [4] -0.028 | [5] 0.154

LZIC isoform 2 (UniProt Q8WZA0)
inactive: [1] 0.03 | [2] 0.005 | [3] 0.013 | [4] 0.011 | [5] 0.02

MAP2K3 isoform 3 (UniProt P46734)
inactive: [1] 0.035 | [2] -0.021 | [3] -0.024 | [4] 0.043 | [5] -0.006

MAP7D1 (UniProt Q3KQU3)
inactive: [1] 0.054 | [2] -0.02 | [3] -0.082 | [4] -0.004 | [5] 0.013

LUZP1 (UniProt Q86V48)
inactive: [1] 0.039 | [2] -0.113 | [3] 0.032 | [4] 0.007 | [5] -0.056

MAF1 (UniProt Q9H063)
inactive: [1] 0.063 | [2] 0.006 | [3] 0.015 | [4] 0.117 | [5] -0.068

MAPK8IP3 (UniProt Q9UPT6)
inactive: [1] 0.02 | [2] 0.027 | [3] 0.062 | [4] -0.065 | [5] 0.043

LYPLAL1 (UniProt Q5VWZ2)
inactive: [1] -0.077 | [2] 0.011 | [3] 0.021 | [4] -0.002 | [5] 0.007

MAP2K4 isoform 2 (UniProt P45985)
inactive: [1] -0.018 | [2] 0.005 | [3] -0.065 | [4] -0.013 | [5] 0.188

MAEA (UniProt Q7L5Y9)
inactive: [1] -0.044 | [2] 0.056 | [3] 0.022 | [4] 0.022 | [5] 0.038

LZTR1 (UniProt Q8N653)
inactive: [1] -0.237 | [2] 0.004 | [3] 0.005 | [4] -0.004 | [5] 0.036

MAGEA1 (UniProt P43355)
inactive: [1] -0.01 | [2] 0.075 | [3] -0.008 | [4] 0.002 | [5] -0.001

MAGED1 isoform 2 (UniProt Q9Y5V3)
inactive: [1] -0.072 | [2] 0.081 | [3] 0.084 | [5] -0.069

Taken from above (3 entries):
MAEA (UniProt Q7L5Y9)
inactive: [1] -0.044 | [2] 0.056 | [3] 0.022 | [4] 0.022 | [5] 0.038

LZTR1 (UniProt Q8N653)
inactive: [1] -0.237 | [2] 0.004 | [3] 0.005 | [4] -0.004 | [5] 0.036

MAGEA1 (UniProt P43355)
inactive: [1] -0.01 | [2] 0.075 | [3] -0.008 | [4] 0.002 | [5] -0.001

More entries

MAP3K20 isoform 2 (UniProt Q9NYL2)
inactive: [1] -0.066 | [2] -0.006 | [3] 0.106 | [4] 0.015 | [5] -0.206

MAGEC2 (UniProt Q9UBF1)
inactive: [1] -0.006 | [2] -0.021 | [3] -0.03 | [4] -0.025 | [5] -0.052

MAD2L1BP isoform 3 (UniProt Q15013)
inactive: [1] 0.003 | [2] 0.005 | [3] -0.013 | [4] -0.01 | [5] -0.006

MAP4K3 (UniProt Q8IVH8)
inactive: [1] 0.286 | [2] 0.19 | [4] 0.158

MAP4K4 isoform 6 (UniProt O95819)
inactive: [1] 0.076 | [2] 0.063 | [4] -0.163

MAPK1 (UniProt P28482)
inactive: [1] 0.045 | [2] -0.006 | [3] -0.016 | [4] 0.039 | [5] 0.012

MACC1 (UniProt Q6ZN28)
inactive: [1] -0.009 | [2] 0.004 | [3] 0.016 | [4] -0.125 | [5] -0.088

MAP4 (UniProt E7EVA0)
inactive: [1] -0.024 | [2] -0.002 | [3] 0.037 | [4] -0.018 | [5] -0.041

MAGEB2 (UniProt O15479)
inactive: [1] 0.019 | [2] 0.018 | [3] -0.026 | [4] 0.02 | [5] 0.004

MAPK12 (UniProt P53778)
inactive: [1] 0.029 | [2] 0.068 | [3] -0.015 | [4] -0.002 | [5] 0.307

MAD2L1 (UniProt Q13257)
inactive: [1] -0.045 | [2] 0.006 | [3] -0.008 | [4] -0.035 | [5] -0.079

LTF (UniProt P02788)
inactive: [1] -0.034 | [2] 0.113 | [3] 0.141 | [4] -0.183 | [5] -0.264

LTN1 isoform 3 (UniProt O94822)
inactive: [1] -0.059 | [2] 0 | [3] 0.027 | [4] -0.025 | [5] 0.04

MAN2B2 (UniProt Q9Y2E5)
inactive: [1] 0.087 | [2] 0.086 | [4] -0.007 | [5] 0.255

MAPKAPK3 (UniProt Q16644)
inactive: [1] 0.03 | [2] -0.031 | [3] -0.005 | [4] 0.009 | [5] 0.019

MAN1B1 (UniProt Q9UKM7)
inactive: [1] 0.062 | [2] -0.023 | [3] 0.044 | [4] 0.003 | [5] 0.01

MAGOHB (UniProt Q96A72)
inactive: [1] -0.03 | [2] -0.015 | [3] -0.006 | [4] 0.046 | [5] -0.017

MADD isoform 4 (UniProt Q8WXG6)
inactive: [1] -0.005 | [2] 0.009 | [3] 0.039 | [4] -0.016 | [5] 0.006

MAPRE3 isoform 2 (UniProt Q9UPY8)
inactive: [1] 0.007 | [2] -0.088 | [3] -0.361 | [5] 0.09

LZTS1 (UniProt Q9Y250)
inactive: [1] -0.082 | [2] 0.049 | [3] 0.065 | [4] -0.628 | [5] 0.324

MARCKSL1 (UniProt P49006)
inactive: [1] 0.028 | [2] -0.021 | [3] -0.043 | [4] 0.078 | [5] 0.127

MAP4 (UniProt P27816)
inactive: [1] 0.027 | [2] 0.012 | [3] -0.012 | [4] -0.027 | [5] -0.043

LYRM2 (UniProt Q9NU23)
inactive: [1] -0.011 | [2] 0.018 | [3] -0.019 | [4] -0.032 | [5] -0.04

LY6E (UniProt Q16553)
inactive: [1] -0.031 | [2] -0.046 | [3] -0.075 | [5] -0.815

MAST4 (UniProt O15021)
inactive: [1] 0.007 | [2] -0.019 | [3] -0.037 | [4] 0.023 | [5] 0

MAP3K8 (UniProt P41279)
inactive: [1] 0.002 | [2] 0.03 | [4] 0.205 | [5] -0.105

LYPLA1 (UniProt O75608)
inactive: [1] -0.081 | [2] -0.04 | [3] 0.027 | [4] 0.04 | [5] 0.009

LYZ (UniProt P61626)
inactive: [1] -0.065 | [2] 0.064 | [3] 0.383 | [4] 0.048 | [5] -0.189

MAP3K5 (UniProt Q99683)
inactive: [1] -0.015 | [2] -0.172 | [3] 0.022 | [5] -0.023

LTV1 (UniProt Q96GA3)
inactive: [1] 0.03 | [2] 0.003 | [3] 0.021 | [4] 0.052 | [5] 0.038

LYRM1 (UniProt O43325)
inactive: [3] -0.071 | [4] 0.031 | [5] 0.25

LTBR (UniProt P36941)
inactive: [1] -0.043 | [2] 0.106 | [5] -0.267

MACF1, A0A5F9ZGX0
inactive: [5] 0.101

LTBP4 (UniProt Q8N2S1)
inactive: [1] 0.086 | [2] 0.117 | [4] 0.043 | [5] -0.028

MACF1 (UniProt E9PLY5)
inactive: [1] -0.019 | [2] 0.111 | [5] -0.235

LYL1 (UniProt P12980)
inactive: [1] -0.182 | [2] 0.146 | [5] -0.128

MAGED4 isoform 4 (UniProt Q96JG8)
inactive: [5] -0.165

MAGEB10 (UniProt Q96LZ2)
inactive: [5] -0.147

MAFG (UniProt O15525)
inactive: [1] 0.039 | [2] 0.07 | [4] 0 | [5] -0.014

MAGEF1 (UniProt Q9HAY2)
inactive: [4] -0.163

MAPKAP1 (UniProt Q9BPZ7)
inactive: [4] -0.048

LTBP1 isoform 4 (UniProt Q14766)
inactive: [1] -0.02 | [2] -0.118 | [4] 0.115 | [5] 0.096

LYPLA1, A0A087X1K9
inactive: [3] 0.323 | [5] -0.155

MAGEA12 (UniProt P43365)
inactive: [3] 0.03 | [5] 0.09

MANBAL (UniProt Q9NQG1)
inactive: [1] -0.066 | [2] 0.115 | [5] -0.004
